Measured values as given in PubChem BioAssay AID258 (DTP/NCI, 2004).
The list does not hold the whole screen: it gathers tests that were run many times, whatever their T/C, doses with no T/C, and many T/C values between a quarter and a half above the control. Further doses and runs are listed elsewhere. T/C gives the treated animals as a percentage of the vehicle group. Some doses have a count of surviving animals in place of a T/C: the source files T/C as zero there, which appears to mark a toxic dose or a test without result, not a measured value. Counts of survivors are from the toxicity check (mostly the fifth day) where no day follows; animals may have died later. Schedules are NCI's codes, taken here to give the interval after Q, in days (D) or hours (H), and the number of doses after X. Some molecules as drawn cover several salts, stereoisomers or complexes of the source; a dose is that of the sample tested. Where survival is the endpoint, this PubChem deposit counts one and a half times the control or more as active, and values a quarter to a half above the control carry no call in these data; other NCI protocols may use other cut-offs. Some schedule codes hold Z or #, which are not explained here. Some T/C values carry the count of animals alive at the toxicity check (mostly the fifth day); where none is given, no animal had died by that day.

Test system: CD2F1 mice, L1210 leukemia sc, survival T/C
Experiment: NCI In Vivo Anticancer Drug Screen. Data for tumor model L1210 Leukemia (subcutaneous) in CD2F1 (CDF1) mice
Settings: T/C endpoint: median survival time, higher T/C = longer survival
Procedure, shortened: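 Antitumor activity is scored in tumor-bearing mice by comparing survival or tumor size of treated animals against vehicle-treated controls, reported as T/C.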

[1] = dose: 166.7 mg/kg/injection, schedule: Q01DX009 (ip), vehicle: water

With NC(Cc1ccccc1)C(=O)OCN1C(=O)C2C3C=CC(C2C1=O)C1C2C(=O)N(COC(=O)C(N)Cc4ccccc4)C(=O)C2C31 (stereo unspecified) the T/C (dose: 44.1 mg/kg/injection, schedule: Q01DX009 (ip), vehicle: water) was 128 % of control, the T/C (dose: 60.0 mg/kg/injection, schedule: Q01DX009 (ip), vehicle: water) was 130 % of control and the T/C (dose: 63.0 mg/kg/injection, schedule: Q01DX009 (ip), vehicle: other) was 127 % of control. The T/C (dose: 63.0 mg/kg/injection, schedule: Q01DX009 (ip), vehicle: water) was 145 % of control, the T/C (dose: 90.0 mg/kg/injection, schedule: Q01DX005 (iv), vehicle: other) was 138 % of control and the T/C (dose: 151.0 mg/kg/injection, schedule: Q01DX009 (oral), vehicle: other) was 135 % of control. For the same molecule, the survivor count [1] was 0 of 10, the T/C (dose: 216.0 mg/kg/injection, schedule: Q01DX009 (oral), vehicle: other) was 137 % of control and the T/C (dose: 309.0 mg/kg/injection, schedule: Q01DX009 (oral), vehicle: other) was 137 % of control. The T/C (dose: 309.0 mg/kg/injection, schedule: Q01DX009 (oral), vehicle: water) was 143 % of control, the survivor count (dose: 441.0 mg/kg/injection, schedule: Q01DX009 (oral), vehicle: water) was 3 of 6 and the survivor count (dose: 900.0 mg/kg/injection, schedule: Q01DX009 (oral), vehicle: other) was 3 of 6. The survivor count (dose: 1286.0 mg/kg/injection, schedule: Q01DX009 (oral), vehicle: water) was 1 of 6.
With O=c1[nH]cc(F)c(=O)[nH]1 the T/C (dose: 12.0 mg/kg/injection, schedule: Q01DX009 (ip), vehicle: saline) was 131 % of control, the T/C (dose: 12.0 mg/kg/injection, schedule: Q01DX009 (sc), vehicle: saline) was 126 % of control and the T/C (dose: 16.0 mg/kg/injection, schedule: Q01DX009 (ip), vehicle: saline) was 136 % of control. For the same molecule, the T/C (dose: 20.0 mg/kg/injection, schedule: Q01DX009 (ip), vehicle: saline) was 141 % of control, the T/C (dose: 23.0 mg/kg/injection, schedule: Q01DX Z (sc), vehicle: saline) was 133 % of control and the T/C (dose: 24.0 mg/kg/injection, schedule: Q01DX009 (ip), vehicle: saline) was 139 % of control [9 of 10 alive]. The T/C (dose: 25.0 mg/kg/injection, schedule: Q01DX006 (ip), vehicle: saline) was 144 % of control, the T/C (dose: 25.0 mg/kg/injection, schedule: Q01DX009 (ip), vehicle: saline) was 143 % of control and the T/C (dose: 36.0 mg/kg/injection, schedule: Q01DX009 (ip), vehicle: saline) was 132 % of control. The T/C (dose: 36.0 mg/kg/injection, schedule: Q01DX009 (sc), vehicle: saline) was 143 % of control, the T/C (dose: 39.0 mg/kg/injection, schedule: Q01DX Z (sc), vehicle: saline) was 125 % of control and the T/C (dose: 50.0 mg/kg/injection, schedule: Q01DX006 (ip), vehicle: saline) was 133 % of control. For the same molecule, the T/C (dose: 50.0 mg/kg/injection, schedule: Q02DX005 (ip), vehicle: saline) was 125 % of control, the T/C (dose: 80.0 mg/kg/injection, schedule: Q01DX009 (sc), vehicle: saline, evaluated on day 30) was 138 % of control and the T/C (dose: 80.0 mg/kg/injection, schedule: Q01DX009 (sc), vehicle: saline, evaluated on day 45) was 143 % of control. The T/C (dose: 100.0 mg/kg/injection, schedule: Q01DX006 (ip), vehicle: saline) was 133 % of control, the T/C (dose: 160.0 mg/kg/injection, schedule: Q01DX009 (sc), vehicle: saline, evaluated on day 30) was 130 % of control and the T/C (dose: 160.0 mg/kg/injection, schedule: Q01DX009 (sc), vehicle: saline, evaluated on day 45) was 134 % of control. For the same molecule, the T/C (dose: 200.0 mg/kg/injection, schedule: Q01DX001 (ip), vehicle: saline) was 133 % of control, the T/C (dose: 200.0 mg/kg/injection, schedule: Q04DX003 (ip), vehicle: saline) was 133 % of control and the T/C (dose: 240.0 mg/kg/injection, schedule: Q01DX009 (sc), vehicle: saline) was 132 % of control.
CN1CCN(CN2C(=O)C3C4C=CC(C3C2=O)C2C3C(=O)N(CN5CCN(C)CC5)C(=O)C3C42)CC1 (stereo unspecified) was tested, and the survivor count [1] was 0 of 6 and the survivor count (dose: 191.2 mg/kg/injection, schedule: Q01DX009 (ip), vehicle: water) was 0 of 6.
